One molecule from PMC11094040 can be followed below.

This assay deals with T1, BmAgo3 (silkworm (endogenous in BmN4)) (UniProt A9ZSZ2).
T1 sequence: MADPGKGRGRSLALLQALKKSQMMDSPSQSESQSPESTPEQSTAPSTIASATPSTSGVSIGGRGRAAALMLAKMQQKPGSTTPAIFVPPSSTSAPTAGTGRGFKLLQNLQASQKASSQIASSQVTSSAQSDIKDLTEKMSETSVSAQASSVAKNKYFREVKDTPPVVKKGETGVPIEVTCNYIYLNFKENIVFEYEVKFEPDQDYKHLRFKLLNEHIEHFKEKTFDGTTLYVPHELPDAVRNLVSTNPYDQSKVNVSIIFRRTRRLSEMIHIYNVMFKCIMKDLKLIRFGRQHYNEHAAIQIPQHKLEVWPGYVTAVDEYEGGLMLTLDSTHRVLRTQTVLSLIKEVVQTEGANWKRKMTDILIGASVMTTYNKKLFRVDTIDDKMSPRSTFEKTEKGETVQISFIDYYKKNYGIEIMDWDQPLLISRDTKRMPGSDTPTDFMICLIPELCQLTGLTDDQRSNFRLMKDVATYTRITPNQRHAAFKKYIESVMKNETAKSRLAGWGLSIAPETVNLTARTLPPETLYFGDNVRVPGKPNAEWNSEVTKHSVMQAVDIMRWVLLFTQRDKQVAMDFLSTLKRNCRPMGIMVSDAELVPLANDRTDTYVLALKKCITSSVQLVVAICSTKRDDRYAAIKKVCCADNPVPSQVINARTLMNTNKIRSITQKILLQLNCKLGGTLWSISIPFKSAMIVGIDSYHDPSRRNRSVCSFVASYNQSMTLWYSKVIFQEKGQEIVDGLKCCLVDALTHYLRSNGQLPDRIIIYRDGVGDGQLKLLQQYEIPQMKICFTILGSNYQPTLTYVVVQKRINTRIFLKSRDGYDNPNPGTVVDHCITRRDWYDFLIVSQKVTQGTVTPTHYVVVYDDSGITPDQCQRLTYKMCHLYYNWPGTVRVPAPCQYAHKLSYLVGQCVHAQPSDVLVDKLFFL
Description: co-IP; tandem IP: first anti-FLAG IP of FLAG-Spn-E-EQ from BmN4 lysate, 3x FLAG peptide eluate diluted with buffer D, second IP with anti-BmAgo3 antibody (or normal rabbit IgG); beads with or without 200 μg/ml RNase A at 30 °C for 15 min; Siwi detected by western blot.

Results are given in words; binding and its absence hold for the method and conditions named. In cells and extracts the contact can be indirect. Some entries that bind do so weakly or less than the wild type.

B1: Siwi (protein, UniProt A8D8P8 1-899)
chain: MSEPRGRGRARGRAGRGGDGGGPAPRRPGEQAGPSQQSMPPGPRPQPPSGWGPQSSVPPVRAGVPTPTAQAGRASHRVTPTTHEHPGDIDVQQRMQKLELGPHSSGGGDASSVVGRGSRRGGGRVLPETISILRTRPEAVTSKKGTSGTPLDLLANYFTVETTPKWGLYQYHVDISPEEDSTGVRKALMRVHSKTLGGYLFDGTVLYTVNRLHPDPMELYSDRKTDNERMRILIKLTCEVSPGDYHYIQIFNIIIRKCFNLLKLQLMGRDYFDPEAKIDIPEFKLQIWPGYKTTINQYEDRLLLVTEIAHKVLRMDTVLQMLSEYAATKGNNYKKIFLEDVVGKIVMTDYNKRTYRVDDVAWNVSPKSTFKMRDENITYIEYYYKKYNLRIQDPGQPLLISRSKPREIRAGLPELIYLVPELCRQTGLSDEMRANFKLMRSLDVHTKIGPDKRIEKLNNFNRRFTSTPEVVEELATWSLKLSKELVKIKGRQLPPENIIQANNVKYPAGDTTEGWTRDMRSKHLLAIAQLNSWVVITPERQRRDTESFIDLIIKTGGGVGFRMRSPDLVVIRHDGPIEYANMCEEVIARKNPALILCVLARNYADRYEAIKKKCTVDRAVPTQVVCARNMSSKSAMSIATKVAIQINCKLGGSPWTVDIPLPSLMVVGYDVCHDTRSKEKSFGAFVATLDKQMTQYYSIVNAHTSGEELSSHMGFNIASAVKKFREKNGTYPARIFIYRDGVGDGQIPYVHSHEVAEIKKKLAEIYAGVEIKLAFIIVSKRINTRIFVQRGRSGENPRPGTVIDDVVTLPERYDFYLVSQNVREGTIAPTSYNVIEDTTGLNPDRIQRLTYKLTHLYFNCSSQVRVPSVCQYAHKLAFLAANSLHNQPHYSLNETLYFL
Take B1: the binding entry is listed as “binds”.
